This passage reports binding results from article PMC5566117.

The assay concerns the target T1, GST-tagged recombinant Pld6 lacking the mitochondria localization sequence (GST-Pld6ΔMLS) (mouse) (UniProt Q5SWZ9).
T1 sequence: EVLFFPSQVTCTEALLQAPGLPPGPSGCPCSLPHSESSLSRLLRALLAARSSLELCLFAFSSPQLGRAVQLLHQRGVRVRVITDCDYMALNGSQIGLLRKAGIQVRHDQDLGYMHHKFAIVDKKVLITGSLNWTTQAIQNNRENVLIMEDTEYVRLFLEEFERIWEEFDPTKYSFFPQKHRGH
Kind of assay: pull-down; in vitro GST pull-down: purified GST-Pld6ΔMLS and His-MBP-Gykl1ΔC29 mixed at 4 °C for 12 h, Glutathione Sepharose 4B 30 min, washed with 50 mM Tris-HCl pH 8.0, 300 mM NaCl; SDS-PAGE, Coomassie blue; both purified.

Results are given in words; binding and its absence hold for the method and conditions named. Binding calls can cover weak binding; strength is not graded here. Tags and fused reporters may be left off the sequences shown.

In the case of “MBP-tagged recombinant Gykl1 lacking the C-terminal 29 amino acids (MBP-Gykl1ΔC29) (from UniProt Q8C635) (domain or fragment)”, the binding entry is listed as “binds”.
